# Experimental data taken from PubChem BioAssay AID1259415 (National Center for Advancing Translational Sciences (NCATS), 2018).
# Out of some 410,000 compounds screened, about 18,000 (4.4%) were called active. Inconclusive means that the source gave no clear call. Such entries were picked first, then a sample of the others. Rule as the data show it: active = activity change below about -60%; inconclusive = no clear call, values can overlap the other calls; inactive = above about -39%.
# Assay: qHTS Assay for inhibitors of the human cytomegalovirus (HCMV)
# Details: HFF cells, HCMV-luciferase reporter, 72 h; at 57.5 µM; hits give low values
# Summary of the method: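 After 16 h attachment at 37C, HFF cells received test compound and HCMV-luciferase (1 PFU/cell); reporter luminescence read 72 h later, data normalized against buffer-only and known inhibitor Salinomycin.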
# % is scaled to controls: 0 for no effect and ±100 for the full control effect.
row,Compound,"activity change, negative = inhibition"
1,CC(C)c1ccc(OCC(=O)N(Cc2ccccc2)c2ccccn2)cc1,inconclusive: -42.9%
2,Cc1cccc(NC(=O)Cn2c(=O)oc3cc(S(=O)(=O)N4CCCC4)ccc32)n1,inconclusive: -46.3%
3,CCOc1ccc(-c2cc(C(=O)NCCCOC)c3c(-c4ccc(CC)cc4)[nH]nc3n2)cc1,inactive: -20.9%
4,CCCCCCn1c(SCC(=O)Nc2cc(C)on2)nc2ccccc2c1=O,active: -62.9%
5,CCOc1ccc(/C=N/NS(=O)(=O)c2ccc(C)cc2)cc1OC,inactive: 19.2%
6,Cc1ccc(NC(=S)N(CCN(C)C)C(C)c2ccco2)cc1Cl (centres undefined),inconclusive: -47%
7,Nc1ccc2ccc3cccc[n+]3c2c1,inactive: -24.7%
8,CCc1nc(N)nc(N)c1-c1ccc(NCCN)c([N+](=O)[O-])c1,active: -78.4%
9,Oc1ccc(-n2nnnc2SCc2c(F)cccc2Cl)cc1,inconclusive: -45.8%
10,COc1cc([N+](=O)[O-])ccc1NC(=O)CSc1n[nH]c(C(C)C)n1,inactive: 2.19%
11,COc1ccccc1NS(=O)(=O)c1cc(N)ccc1N1CCCCC1,inconclusive: -40.8%
12,COc1ccccc1N1CCN(C2CCN(S(=O)(=O)c3ccc4ccccc4c3)CC2)CC1,inconclusive: -44.4%
13,COc1ccc(/C=N/NC(=O)CN2CCSCC2)cc1C,inconclusive: -53.1%
14,CCn1c(=N)c(S(=O)(=O)c2ccc(F)cc2)cc2c(=O)n3ccccc3nc21,inconclusive: -42.8%
15,Cc1ccc(CNc2ncnc3onc(C)c23)cc1,inactive: -37.2%
16,COc1ccc2nc(-c3ccccc3)cc(C(=O)OCC(=O)NC3CC3)c2c1,inactive: 75.4%
17,CCN1C(=O)CS/C1=N\S(=O)(=O)c1ccc(C)cc1,inconclusive: -40.4%
18,Cc1ccc(Cn2nnc3c(=O)n(CC(=O)NCc4ccc5c(c4)OCO5)cnc32)cc1,inconclusive: -41.4%
19,CN(C[C@H](Cc1ccccc1)N(C[C@H](CC1CCCCC1)N(CCc1ccccc1)N=O)N=O)N=O,inactive: -3.93%
20,COc1ccc(/C=C/C(=O)OCc2cccc([N+](=O)[O-])c2)cc1,inconclusive: -49.9%
21,O=C(Nc1ccc(NC(=O)C2CCCN2C(=O)OCc2ccccc2)cc1)c1ccco1 (centres undefined),inconclusive: -43.8%
22,COc1ccc(C2=C3C(=O)OCC3Cc3ncn(Cc4ccccc4)c32)cc1 (centres undefined),active: -76%
23,Cc1ccc(-c2nc(CS(=O)(=O)CC(=O)N3CCCCCC3)c(C)o2)cc1,inconclusive: -43.9%
24,Cc1nn2c(=O)cc(COc3ccc(/C=C(\C#N)C(=O)Nc4ccccc4)cc3Cl)nc2s1,inactive: -2.84%

# Filtered by structure: the entries above with a Cl atom.
row,Compound,"activity change, negative = inhibition"
6,Cc1ccc(NC(=S)N(CCN(C)C)C(C)c2ccco2)cc1Cl (centres undefined),inconclusive: -47%
9,Oc1ccc(-n2nnnc2SCc2c(F)cccc2Cl)cc1,inconclusive: -45.8%
24,Cc1nn2c(=O)cc(COc3ccc(/C=C(\C#N)C(=O)Nc4ccccc4)cc3Cl)nc2s1,inactive: -2.84%
